Experiment: Haematological changes after treatment of infected vervet monkeys
Format: in vivo, vervet monkey
Conditions: DB829 IM or DB868 orally

SMILES: N=C(N)c1ccc(-c2ccc(-c3ccc(C(=N)N)cn3)o2)nc1 [DB829, 2,5-bis(5-amidino-2-pyridyl)furan]
- time for RBC counts to recover to baseline levels upon treatment: 1–2 months

From article PMC4318582, “Chemotherapy of Second Stage Human African Trypanosomiasis: Comparison between the Parenteral Diamidine DB829 and Its Oral Prodrug DB868 in Vervet Monkeys” (PLoS Neglected Tropical Diseases, 2015)
